Measured values: PubChem BioAssay (NCATS)
Inconclusive means that the source gave no clear call. Such entries were picked first, then a sample of the others. Potencies beside an inconclusive call are fits to weak or partial responses and may not hold up. Activity calls are given as the source filed them. Calls follow the shape of the dose curve; as a rule, active = well fitted curve in the direction sought with a large enough effect; inconclusive = small, poorly fitted or top-dose-only effect, or another doubt; inactive = no such curve, though single readings can be large; an effect the other way counts as inactive or inconclusive.

Legend:
[1] = Quantitative High-Throughput drug screen in 47 multiple myeloma cell lines against the NCATS MIPE library collection: KHM11_PLB cell viability assay (AID 1918962); details: KHM11 myeloma cell viability, CellTiter-Glo ATP luminescence, 48 h; viability, % of DMSO control: at 45.8 µM (top of the series) unless noted; also: nearly all actives have a fitted effect of over 35% in size
Method in brief: (§1)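 Primary qHTS used for cherry-picking: cells at 500/well, library compounds for 48 h (37C, 5% CO2), luminescent ATP assay.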

[2] = Quantitative High-Throughput drug screen in 47 multiple myeloma cell lines against the NCATS MIPE library collection: JIM3_ECACC cell viability assay (AID 1918963; also: nearly all actives have a fitted effect of over 35% in size); details: JIM3 myeloma viability, CellTiter-Glo ATP, 48 h; series mostly up to 45.8 µM
Method in brief: as §1

[3] = Quantitative High-Throughput drug screen in 47 multiple myeloma cell lines against the NCATS MIPE library collection: JIM1_ECACC cell viability assay (AID 1918964); details: JIM1 myeloma viability, CellTiter-Glo ATP luminescence, 48 h; viability (% of DMSO): at 45.8 µM (top of the series)
Method in brief: (§2)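 We plated 500 myeloma cells per well, pinned in MIPE 4.0 compounds, and incubated for 48 hours at 37C. ATP was then quantified with CellTiter-Glo, with DMSO and media-only wells defining 100% and 0%.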

[4] = Quantitative High-Throughput drug screen in 47 multiple myeloma cell lines against the NCATS MIPE library collection: INA6_PLB cell viability assay (AID 1918965; also: nearly all actives have a fitted effect of over 55% in size); details: INA6 myeloma viability, CellTiter-Glo ATP luminescence, 48 h; viability (% of control): at 45.8 µM (top of the series) unless noted
Method in brief: as §2

[5] = Quantitative High-Throughput drug screen in 47 multiple myeloma cell lines against the NCATS MIPE library collection: JJN3_DSMZ cell viability assay (AID 1918966; also: nearly all actives have a fitted effect of over 50% in size); details: JJN3 myeloma cells viability, CellTiter-Glo ATP, 48 h; series mostly up to 45.8 µM
Method in brief: as §2

[6] = Quantitative High-Throughput drug screen in 47 multiple myeloma cell lines against the NCATS MIPE library collection: H1112_PLB cell viability assay (AID 1918967; also: nearly all actives have a fitted effect of over 30% in size); details: H1112 myeloma cells viability, ATP luminescence, 48 h; series mostly up to 45.8 µM
Method in brief: as §2

[7] = Quantitative High-Throughput drug screen in 47 multiple myeloma cell lines against the NCATS MIPE library collection: KMS27_JCRB cell viability assay (AID 1918970); details: KMS27 myeloma cells, CellTiter-Glo ATP viability, 48 h; viability (% of DMSO): at 45.8 µM (top of the series); also: nearly all actives have a fitted effect of over 30% in size
Method in brief: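 Each line is seeded at 500 cells per well and treated with library compounds for 48 hours under 37 °C, 5% CO2. CellTiter-Glo is then added for 5 min at room temperature before median relative luminescence is recorded.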

[8] = Quantitative High-Throughput drug screen in 47 multiple myeloma cell lines against the NCATS MIPE library collection: KMS12BM_JCRB cell viability assay (AID 1918971); details: KMS12BM myeloma viability, CellTiter-Glo ATP, 48 h; viability, % of DMSO: at 45.8 µM (top of the series); also: nearly all actives have a fitted effect of over 35% in size
Method in brief: as §2

[9] = Quantitative High-Throughput drug screen in 47 multiple myeloma cell lines against the NCATS MIPE library collection: Karpas25_ECACC cell viability assay (AID 1918968; also: nearly all actives have a fitted effect of over 35% in size); details: Karpas25 myeloma viability, CellTiter-Glo ATP, 48 h; series mostly up to 45.8 µM
Method in brief: as §2

[10] = Quantitative High-Throughput drug screen in 47 multiple myeloma cell lines against the NCATS MIPE library collection: KMS12PE_JCRB cell viability assay (AID 1918972); details: KMS12PE myeloma viability, CellTiter-Glo ATP, 48 h; viability: at 45.8 µM (top of the series); also: nearly all actives have a fitted effect of over 30% in size
Method in brief: as §2
Potency is read from the fitted curve at half-maximal effect.

O=C(NCCS(=O)(=O)c1ccc(C(F)(F)F)cn1)c1ccc(Cl)cc1
inconclusive: Potency [3] 0.001 µM [cytotoxic] | Potency [7] 0.0037 µM [cytotoxic, full curve, poor fit]
inactive: Potency [1] | Potency [2] | Potency [4] | Potency [5] | Potency [6]
active: Potency [8] 0.0235 µM

CCOC(=O)C(C)Oc1cccc2c(=O)n(CC(=O)Nc3ccc4c(c3)OCCO4)ccc12 (centres undefined)
inconclusive: Potency [2] 18.7 µM [cytotoxic, partial curve, poor fit] | Potency [5] 3.72 µM [cytotoxic, full curve, poor fit] | Potency [9] 26.4 µM [cytotoxic, single point]
inactive: Potency [1] | Potency [3] | Potency [4] | Potency [7]

OC[C@H](Cc1ccccc1)Nc1nc(Oc2ccc3c(c2)CCC3)nc2c1ncn2Cc1ccc(-c2ccccc2)cc1
inconclusive: Potency [1] 4.69 µM [cytotoxic, full curve] | Potency [2] 16.6 µM [cytotoxic, partial curve] | Potency [4] 3.72 µM [cytotoxic, full curve] | Potency [5] 0.0037 µM [rising, full curve, poor fit] | Potency [6] 0.001 µM | Potency [9] 13.2 µM [cytotoxic, partial curve] | Potency [7] 0.0093 µM [rising, full curve, poor fit] | Potency [8] 14.8 µM [cytotoxic, partial curve, poor fit]
inactive: Potency [3]

C[C@H]1O[C@H](O[C@H]2[C@H](O)[C@@H](O)[C@@H](O[C@H]3[C@H](O)[C@@H](O)C(O)O[C@H]3CO)O[C@H]2CO)[C@H](O)[C@@H](O)[C@H]1N[C@H]1C=C(CO)[C@@H](O)[C@H](O)[C@@H]1O (some centres undefined)
inconclusive: Potency [3] 18.7 µM [cytotoxic, partial curve, poor fit] | Potency [5] 0.0332 µM [rising, full curve, poor fit] | Potency [9] 0.0093 µM [rising, full curve, poor fit] | Potency [7] 1.05 µM [cytotoxic, full curve, poor fit] | Potency [8] 0.469 µM [rising, full curve, poor fit]
inactive: Potency [1] | Potency [2] | Potency [4]

CC(=O)[C@H]1CC[C@H]2[C@@H]3CC=C4C[C@@H](O)CC[C@]4(C)[C@H]3CC[C@]12C
inactive: Potency [1] | Potency [2] | Potency [6] | Potency [9]
inconclusive: Potency [3] 0.0021 µM [rising, full curve, poor fit] | Potency [4] 0.0264 µM [rising, full curve, poor fit] | Potency [5] 23.5 µM [cytotoxic, partial curve, poor fit] | Potency [7] 0.0037 µM [rising, full curve, poor fit] | Potency [8] 6.62 µM [cytotoxic, full curve, poor fit]

Cc1ccc(-c2cc(C(F)(F)F)nn2-c2ccc(S(N)(=O)=O)cc2)cc1
inconclusive: Potency [2] 37.2 µM [cytotoxic, single point] | Potency [3] 0.148 µM [cytotoxic, full curve, poor fit] | Potency [4] 33.2 µM [cytotoxic, single point] | Potency [6] 20.9 µM [cytotoxic, single point] | Potency [9] 18.7 µM [cytotoxic, partial curve] | viability, % of DMSO [8] 104% [cytotoxic]
inactive: Potency [1]

Cn1c(NCCN(CCO)CCCc2ccc([N+](=O)[O-])cc2)cc(=O)n(C)c1=O
inactive: Potency [6]
inconclusive: Potency [1] 37.2 µM [cytotoxic, single point] | Potency [2] 23.5 µM [cytotoxic, single point] | Potency [3] 37.2 µM [cytotoxic, single point] | Potency [4] 33.2 µM [cytotoxic, single point] | Potency [9] 20.9 µM [cytotoxic, single point] | Potency [8] 23.5 µM [cytotoxic, single point]
active: Potency [7] 26.4 µM

COc1c(C)c2c(c(O)c1CC=C(C)CCC(=O)OCCN1CCOCC1)C(=O)OC2
inconclusive: Potency [1] 2.35 µM [cytotoxic, full curve, poor fit] | Potency [2] 3.72 µM [cytotoxic, full curve] | Potency [3] 2.64 µM [cytotoxic, full curve, poor fit] | Potency [5] 5.9 µM [cytotoxic, full curve, poor fit]

O=C1C(CCC(O)c2ccc(F)cc2)C(c2ccc(O)cc2)N1c1ccc(F)cc1 (centres undefined)
inactive: Potency [3] | Potency [4] | Potency [8]
inconclusive: Potency [1] 5.26 µM [rising, partial curve, poor fit] | Potency [2] 41.8 µM [cytotoxic, partial curve, poor fit] | Potency [5] 0.0083 µM [rising, full curve, poor fit]

CO[C@H]1/C=C\O[C@@]2(C)Oc3c(C)c(O)c4c(O)c(c(C=NN5CCN(C6CCCC6)CC5)c(O)c4c3C2=O)NC(=O)C(C)=CC=C[C@H](C)[C@H](O)[C@@H](C)[C@@H](O)[C@@H](C)[C@H](OC(C)=O)[C@H]1C
active: Potency [1] 0.118 µM | Potency [6] 1.18 µM
inconclusive: Potency [2] 0.118 µM [cytotoxic, full curve] | Potency [3] 0.0833 µM [cytotoxic, full curve] | Potency [4] 0.059 µM [cytotoxic, full curve] | Potency [7] 0.0833 µM [cytotoxic, full curve] | Potency [10] 0.0662 µM [cytotoxic, full curve]

Already shown: 2 of the compounds above.
Cc1ccc(-c2cc(C(F)(F)F)nn2-c2ccc(S(N)(=O)=O)cc2)cc1
inconclusive: Potency [2] 37.2 µM [cytotoxic, single point] | Potency [3] 0.148 µM [cytotoxic, full curve, poor fit] | Potency [4] 33.2 µM [cytotoxic, single point] | Potency [6] 20.9 µM [cytotoxic, single point] | Potency [9] 18.7 µM [cytotoxic, partial curve] | viability, % of DMSO [8] 104% [cytotoxic]
inactive: Potency [1]

Cn1c(NCCN(CCO)CCCc2ccc([N+](=O)[O-])cc2)cc(=O)n(C)c1=O
inactive: Potency [6]
inconclusive: Potency [1] 37.2 µM [cytotoxic, single point] | Potency [2] 23.5 µM [cytotoxic, single point] | Potency [3] 37.2 µM [cytotoxic, single point] | Potency [4] 33.2 µM [cytotoxic, single point] | Potency [9] 20.9 µM [cytotoxic, single point] | Potency [8] 23.5 µM [cytotoxic, single point]
active: Potency [7] 26.4 µM

(listing goes on)

O=C(CN1C(=O)C2(CCCC2)NC[C@H]1c1cc(F)cc(F)c1)Nc1ccc2c(c1)C[C@@]1(C2)C(=O)Nc2ncccc21
active: Potency [3] 18.7 µM
inactive: Potency [2] | Potency [4] | Potency [9] | Potency [8]
inconclusive: Potency [1] 0.743 µM [rising, full curve, poor fit] | Potency [5] 0.0264 µM [rising, full curve, poor fit] | Potency [10] 23.5 µM [cytotoxic, single point]

NC(=O)c1cccnc1
inconclusive: Potency [1] 0.001 µM [cytotoxic] | Potency [4] 37.2 µM [cytotoxic, single point] | Potency [5] 0.0013 µM [cytotoxic, full curve, poor fit] | Potency [8] 118 µM [cytotoxic, partial curve, poor fit]
inactive: Potency [2] | Potency [3]

C[C@]1(CO)CN(c2cc(C(=O)Nc3ccc4c(c3)-c3c(c(C(N)=O)nn3-c3ccc(F)cc3)CC4)c(Cl)cn2)C[C@@]1(C)CO
active: Potency [1] 4.18 µM | Potency [3] 11.8 µM | Potency [4] 2.64 µM | Potency [8] 16.6 µM
inconclusive: Potency [2] 5.9 µM [cytotoxic, partial curve] | Potency [5] 5.26 µM [cytotoxic, full curve, poor fit] | Potency [10] 1.18 µM [cytotoxic, full curve]

COc1ccc2c(c1)c(CC(=O)O)c(C)n2C(=O)c1ccc(Cl)cc1
inconclusive: Potency [1] 6.62 µM [cytotoxic, partial curve, poor fit] | Potency [3] 0.0013 µM [cytotoxic, full curve, poor fit] | Potency [5] 0.0021 µM [rising, full curve, poor fit] | Potency [7] 14.8 µM [cytotoxic, partial curve, poor fit] | Potency [8] 14.8 µM [cytotoxic, partial curve, poor fit] | Potency [10] 18.7 µM [cytotoxic, partial curve, poor fit]
inactive: Potency [2]
active: Potency [4] 16.6 µM

CC(C)(F)C[C@H](N[C@@H](c1ccc(-c2ccc(S(C)(=O)=O)cc2)cc1)C(F)(F)F)C(=O)NC1(C#N)CC1
active: Potency [2] 0.0833 µM
inactive: Potency [7]
inconclusive: Potency [1] 0.0074 µM [cytotoxic, full curve, poor fit] | Potency [3] 3.32 µM [cytotoxic, full curve, poor fit] | Potency [4] 16.6 µM [cytotoxic, partial curve, poor fit] | Potency [5] 11.8 µM [cytotoxic, partial curve, poor fit] | Potency [8] 18.7 µM [cytotoxic, partial curve, poor fit] | Potency [10] 7.43 µM [cytotoxic, full curve, poor fit]

O=S(=O)(O)CCS
inactive: Potency [4]
inconclusive: Potency [1] 20.9 µM [rising, partial curve] | Potency [2] 0.235 µM [rising, full curve, poor fit] | Potency [3] 16.6 µM [cytotoxic, partial curve, poor fit] | Potency [5] 0.0017 µM [rising, full curve, poor fit] | Potency [8] 0.0372 µM [rising, full curve, poor fit] | Potency [10] 26.4 µM [cytotoxic, single point]

Nc1cccc2c1CN(C1CCC(=O)NC1=O)C2=O (centres undefined)
inactive: Potency [2]
inconclusive: Potency [1] 0.0215 µM [rising, full curve, poor fit] | Potency [3] 12.1 µM [rising, partial curve, poor fit] | Potency [4] 6.79 µM [cytotoxic, full curve, poor fit] | Potency [8] 2.15 µM [cytotoxic, full curve, poor fit]
active: Potency [5] 1.71 µM | Potency [9] 4.81 µM
